Laboratory results taken from the supplement of paper PMC10849652.
This is one part of the list.

Sequences of proteins named here, by UniProt entry; tags and fusion partners are left off. A change or cut given only in a name is not applied to a line headed by its entry.
UniProt O60784, whole entry, looked up: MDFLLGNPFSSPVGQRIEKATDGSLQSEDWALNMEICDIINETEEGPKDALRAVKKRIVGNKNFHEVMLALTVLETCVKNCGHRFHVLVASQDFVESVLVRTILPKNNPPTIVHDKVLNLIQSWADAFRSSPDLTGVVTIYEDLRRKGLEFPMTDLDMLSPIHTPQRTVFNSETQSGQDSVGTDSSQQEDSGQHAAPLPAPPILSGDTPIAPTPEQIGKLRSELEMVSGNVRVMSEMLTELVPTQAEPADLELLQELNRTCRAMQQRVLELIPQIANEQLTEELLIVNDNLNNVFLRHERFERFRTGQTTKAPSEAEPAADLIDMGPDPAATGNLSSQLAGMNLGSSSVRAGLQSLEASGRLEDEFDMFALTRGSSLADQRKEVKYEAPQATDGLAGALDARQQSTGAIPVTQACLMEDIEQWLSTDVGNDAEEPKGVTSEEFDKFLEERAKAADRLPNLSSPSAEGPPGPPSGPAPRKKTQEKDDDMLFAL
UniProt Q86TN4: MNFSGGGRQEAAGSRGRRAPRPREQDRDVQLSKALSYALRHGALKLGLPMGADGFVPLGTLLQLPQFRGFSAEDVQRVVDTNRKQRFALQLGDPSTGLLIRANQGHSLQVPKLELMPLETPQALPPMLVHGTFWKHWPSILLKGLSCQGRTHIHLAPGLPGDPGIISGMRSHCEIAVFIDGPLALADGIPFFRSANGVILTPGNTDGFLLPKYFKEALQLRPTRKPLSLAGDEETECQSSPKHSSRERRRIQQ
UniProt Q96DX7: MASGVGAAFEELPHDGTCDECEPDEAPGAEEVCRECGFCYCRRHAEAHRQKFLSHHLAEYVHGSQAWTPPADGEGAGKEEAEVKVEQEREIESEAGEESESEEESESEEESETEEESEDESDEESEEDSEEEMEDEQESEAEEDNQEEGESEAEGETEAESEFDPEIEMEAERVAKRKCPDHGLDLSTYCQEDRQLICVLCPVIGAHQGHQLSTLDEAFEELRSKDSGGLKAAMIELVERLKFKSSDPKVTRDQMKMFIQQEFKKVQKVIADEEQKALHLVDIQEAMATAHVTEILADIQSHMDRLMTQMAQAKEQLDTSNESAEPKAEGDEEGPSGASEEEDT
UniProt Q6Q0C0: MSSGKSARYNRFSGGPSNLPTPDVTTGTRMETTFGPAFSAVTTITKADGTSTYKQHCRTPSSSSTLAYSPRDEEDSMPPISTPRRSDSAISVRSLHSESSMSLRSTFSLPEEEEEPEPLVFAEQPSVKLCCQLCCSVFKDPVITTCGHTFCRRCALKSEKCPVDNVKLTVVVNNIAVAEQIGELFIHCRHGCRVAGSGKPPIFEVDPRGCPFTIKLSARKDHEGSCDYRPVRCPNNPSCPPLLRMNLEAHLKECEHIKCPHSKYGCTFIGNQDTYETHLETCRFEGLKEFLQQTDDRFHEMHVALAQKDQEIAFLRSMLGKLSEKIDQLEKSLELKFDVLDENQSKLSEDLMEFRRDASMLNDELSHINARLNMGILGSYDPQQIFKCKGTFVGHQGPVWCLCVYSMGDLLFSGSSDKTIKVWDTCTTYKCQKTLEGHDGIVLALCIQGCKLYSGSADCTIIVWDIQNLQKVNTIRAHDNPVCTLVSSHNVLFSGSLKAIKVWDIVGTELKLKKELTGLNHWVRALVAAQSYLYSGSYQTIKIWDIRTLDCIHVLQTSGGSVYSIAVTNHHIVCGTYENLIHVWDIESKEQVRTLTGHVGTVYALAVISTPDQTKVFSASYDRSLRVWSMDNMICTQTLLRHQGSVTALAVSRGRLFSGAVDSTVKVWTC
UniProt Q13263: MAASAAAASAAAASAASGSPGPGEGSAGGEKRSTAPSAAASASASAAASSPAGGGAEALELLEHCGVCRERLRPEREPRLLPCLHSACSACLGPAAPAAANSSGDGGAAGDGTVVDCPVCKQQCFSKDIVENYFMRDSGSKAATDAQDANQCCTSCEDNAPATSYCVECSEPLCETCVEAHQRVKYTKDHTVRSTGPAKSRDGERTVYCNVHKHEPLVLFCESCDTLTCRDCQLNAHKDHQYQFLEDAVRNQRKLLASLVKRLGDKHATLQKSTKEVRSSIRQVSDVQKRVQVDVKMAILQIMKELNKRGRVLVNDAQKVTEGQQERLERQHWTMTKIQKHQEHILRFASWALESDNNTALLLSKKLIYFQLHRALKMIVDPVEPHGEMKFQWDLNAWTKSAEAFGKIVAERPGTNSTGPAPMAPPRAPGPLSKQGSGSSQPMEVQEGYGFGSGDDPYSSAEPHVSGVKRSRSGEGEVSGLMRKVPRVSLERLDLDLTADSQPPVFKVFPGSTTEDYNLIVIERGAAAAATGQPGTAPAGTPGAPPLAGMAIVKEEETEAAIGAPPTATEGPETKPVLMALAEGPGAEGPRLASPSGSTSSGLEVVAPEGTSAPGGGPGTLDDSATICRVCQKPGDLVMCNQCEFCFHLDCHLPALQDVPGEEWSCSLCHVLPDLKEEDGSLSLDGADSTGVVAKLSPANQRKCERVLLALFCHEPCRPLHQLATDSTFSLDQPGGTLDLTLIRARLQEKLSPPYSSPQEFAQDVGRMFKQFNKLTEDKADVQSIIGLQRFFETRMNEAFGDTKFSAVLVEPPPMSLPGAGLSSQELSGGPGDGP
UniProt Q9C037: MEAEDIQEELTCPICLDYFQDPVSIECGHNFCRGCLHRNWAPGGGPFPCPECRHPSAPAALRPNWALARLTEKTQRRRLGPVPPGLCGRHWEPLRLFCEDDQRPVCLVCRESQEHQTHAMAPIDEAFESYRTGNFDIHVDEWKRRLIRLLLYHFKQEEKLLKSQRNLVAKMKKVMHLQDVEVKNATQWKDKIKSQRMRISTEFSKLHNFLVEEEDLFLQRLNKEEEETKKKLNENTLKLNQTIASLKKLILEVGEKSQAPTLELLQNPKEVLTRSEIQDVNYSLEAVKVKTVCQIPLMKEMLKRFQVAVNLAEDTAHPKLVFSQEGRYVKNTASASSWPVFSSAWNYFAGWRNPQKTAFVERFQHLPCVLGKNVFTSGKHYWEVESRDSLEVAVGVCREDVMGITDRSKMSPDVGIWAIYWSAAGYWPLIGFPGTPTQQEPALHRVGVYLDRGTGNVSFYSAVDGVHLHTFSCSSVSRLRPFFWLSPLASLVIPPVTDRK
UniProt Q9H496: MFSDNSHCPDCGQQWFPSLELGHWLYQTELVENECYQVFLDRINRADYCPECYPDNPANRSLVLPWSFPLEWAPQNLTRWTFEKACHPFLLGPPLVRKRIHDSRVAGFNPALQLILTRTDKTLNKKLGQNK
UniProt O95271: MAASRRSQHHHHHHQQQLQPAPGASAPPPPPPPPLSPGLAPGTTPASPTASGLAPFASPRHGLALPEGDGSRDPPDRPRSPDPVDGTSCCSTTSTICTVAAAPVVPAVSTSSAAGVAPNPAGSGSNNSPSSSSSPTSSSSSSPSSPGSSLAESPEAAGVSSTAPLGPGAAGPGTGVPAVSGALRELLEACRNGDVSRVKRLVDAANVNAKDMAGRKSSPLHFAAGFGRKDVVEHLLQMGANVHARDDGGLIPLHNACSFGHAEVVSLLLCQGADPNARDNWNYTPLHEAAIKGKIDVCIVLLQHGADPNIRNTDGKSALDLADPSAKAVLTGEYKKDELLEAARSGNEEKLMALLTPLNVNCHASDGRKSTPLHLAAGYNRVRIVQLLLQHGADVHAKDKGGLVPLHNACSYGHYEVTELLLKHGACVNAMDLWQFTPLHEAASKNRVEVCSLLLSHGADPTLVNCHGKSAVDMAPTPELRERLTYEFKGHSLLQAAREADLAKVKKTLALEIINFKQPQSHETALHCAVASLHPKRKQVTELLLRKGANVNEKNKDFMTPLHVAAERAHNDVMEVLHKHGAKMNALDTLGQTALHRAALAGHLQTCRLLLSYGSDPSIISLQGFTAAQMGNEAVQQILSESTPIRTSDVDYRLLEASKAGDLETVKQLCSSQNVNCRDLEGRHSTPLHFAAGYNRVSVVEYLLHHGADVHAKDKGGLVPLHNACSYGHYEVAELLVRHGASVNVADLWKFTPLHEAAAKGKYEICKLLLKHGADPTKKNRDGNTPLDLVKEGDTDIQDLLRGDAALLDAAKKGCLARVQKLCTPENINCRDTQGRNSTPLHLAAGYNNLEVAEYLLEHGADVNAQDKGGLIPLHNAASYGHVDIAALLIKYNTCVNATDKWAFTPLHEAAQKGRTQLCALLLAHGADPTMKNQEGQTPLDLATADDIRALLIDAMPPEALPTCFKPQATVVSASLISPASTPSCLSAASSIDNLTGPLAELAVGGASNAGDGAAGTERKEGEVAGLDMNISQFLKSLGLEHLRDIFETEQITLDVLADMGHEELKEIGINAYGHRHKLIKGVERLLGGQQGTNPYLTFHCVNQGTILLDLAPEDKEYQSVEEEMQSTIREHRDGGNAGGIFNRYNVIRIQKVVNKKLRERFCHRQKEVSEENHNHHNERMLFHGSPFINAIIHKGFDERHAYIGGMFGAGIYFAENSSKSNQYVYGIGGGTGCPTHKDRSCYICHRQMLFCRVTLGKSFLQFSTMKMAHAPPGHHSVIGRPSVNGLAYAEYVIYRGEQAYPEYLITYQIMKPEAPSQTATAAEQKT
UniProt Q15035: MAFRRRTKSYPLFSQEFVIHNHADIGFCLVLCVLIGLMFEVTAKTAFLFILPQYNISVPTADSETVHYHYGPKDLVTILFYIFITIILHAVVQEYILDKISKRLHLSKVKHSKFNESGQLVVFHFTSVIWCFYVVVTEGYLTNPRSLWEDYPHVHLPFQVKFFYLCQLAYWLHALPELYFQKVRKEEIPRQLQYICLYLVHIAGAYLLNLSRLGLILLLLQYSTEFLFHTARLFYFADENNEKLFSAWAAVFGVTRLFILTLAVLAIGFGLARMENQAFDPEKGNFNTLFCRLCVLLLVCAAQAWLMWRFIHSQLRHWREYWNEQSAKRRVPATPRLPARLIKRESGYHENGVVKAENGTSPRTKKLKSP
UniProt Q9H3H1: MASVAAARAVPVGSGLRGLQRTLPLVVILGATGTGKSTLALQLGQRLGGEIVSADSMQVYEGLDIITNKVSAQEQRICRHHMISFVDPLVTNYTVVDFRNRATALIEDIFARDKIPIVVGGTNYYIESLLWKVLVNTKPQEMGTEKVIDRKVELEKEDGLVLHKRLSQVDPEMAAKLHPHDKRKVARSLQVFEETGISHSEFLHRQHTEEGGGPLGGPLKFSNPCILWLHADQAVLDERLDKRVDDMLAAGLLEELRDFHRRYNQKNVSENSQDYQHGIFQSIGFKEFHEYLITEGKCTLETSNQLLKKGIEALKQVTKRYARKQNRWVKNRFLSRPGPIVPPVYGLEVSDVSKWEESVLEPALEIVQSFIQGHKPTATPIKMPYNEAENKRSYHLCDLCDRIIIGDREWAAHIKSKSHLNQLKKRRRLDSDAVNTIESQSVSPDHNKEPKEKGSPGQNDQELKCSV
UniProt Q92574: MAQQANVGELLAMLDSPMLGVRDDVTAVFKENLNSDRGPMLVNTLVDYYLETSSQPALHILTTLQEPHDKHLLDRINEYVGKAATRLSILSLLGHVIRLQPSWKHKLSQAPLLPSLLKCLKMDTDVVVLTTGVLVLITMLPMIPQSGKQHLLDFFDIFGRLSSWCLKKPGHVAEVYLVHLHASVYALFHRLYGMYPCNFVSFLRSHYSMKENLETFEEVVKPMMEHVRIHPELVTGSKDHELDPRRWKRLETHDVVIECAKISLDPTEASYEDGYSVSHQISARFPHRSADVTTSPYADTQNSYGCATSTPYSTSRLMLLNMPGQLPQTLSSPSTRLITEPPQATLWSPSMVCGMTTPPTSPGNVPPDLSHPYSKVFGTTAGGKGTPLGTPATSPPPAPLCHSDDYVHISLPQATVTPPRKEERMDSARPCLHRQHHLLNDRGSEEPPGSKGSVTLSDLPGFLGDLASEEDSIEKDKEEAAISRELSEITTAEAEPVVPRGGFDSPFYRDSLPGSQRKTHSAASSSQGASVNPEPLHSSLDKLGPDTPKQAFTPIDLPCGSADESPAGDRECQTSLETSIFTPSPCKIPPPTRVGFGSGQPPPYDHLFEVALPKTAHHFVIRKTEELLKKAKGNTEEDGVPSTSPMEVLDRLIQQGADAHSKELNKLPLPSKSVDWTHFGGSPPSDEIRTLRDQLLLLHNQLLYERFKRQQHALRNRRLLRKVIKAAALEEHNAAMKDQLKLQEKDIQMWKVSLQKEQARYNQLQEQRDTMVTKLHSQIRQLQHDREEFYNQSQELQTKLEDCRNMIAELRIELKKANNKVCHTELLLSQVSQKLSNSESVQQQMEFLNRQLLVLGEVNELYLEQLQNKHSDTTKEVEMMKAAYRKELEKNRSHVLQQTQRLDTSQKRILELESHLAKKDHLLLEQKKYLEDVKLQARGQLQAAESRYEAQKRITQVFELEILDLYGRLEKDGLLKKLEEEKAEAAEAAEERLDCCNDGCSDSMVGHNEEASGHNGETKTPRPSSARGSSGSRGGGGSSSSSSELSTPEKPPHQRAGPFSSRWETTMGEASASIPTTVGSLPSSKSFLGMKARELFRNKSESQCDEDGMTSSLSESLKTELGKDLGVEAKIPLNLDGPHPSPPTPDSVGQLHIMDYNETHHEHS

What was measured:
Test in all cases: log2 fold change, soluble protein after heating vs DMSO (PISA); higher = thermal stabilisation; K562 cells, 10 uM, 30 min; active = over 0.2 and 3.5 SD of the protein, either way, in both replicates (recomputed)
[1] = compound: CS(=O)(=O)c1ccc(-c2cnc(N)c(C(=O)Nc3ccccc3)n2)cc1
Procedure, shortened: (§1)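 Thermal stability values are relative to control samples and come from duplicates. They are expressed as log2 fold changes. For measurement, K562 cells (2×10^6 cells/mL) received 10 μM compound for 30 min, and aliquots were heated for 3 min over 48°C-58°C, pooled, and extracted at 4°C in PBS with 0.5% NP-40. Soluble protein, the supernatant after 21,000xg for 90 min, was quantified by TMTpro 16plex LC-MS/MS with equalised channel sums.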

crizotinib = compound: C[C@@H](Oc1cc(-c2cnn(C3CCNCC3)c2)cnc1N)c1c(Cl)ccc(F)c1Cl [crizotinib]
Procedure, shortened: as §1

[2] = compound: C[C@@H]1COCCN1C2=NC(=NC(=C2)C3(CC3)S(=O)(=O)C)C4=C5C=CNC5=CC=C4
Procedure, shortened: as §1

[3] = compound: C[C@H](C1=CC=C(C=C1)C(=O)NC2=C3C=CNC3=NC=C2)N
Procedure, shortened: as §1

gandotinib = compound: Cc1cc(Nc2cc(CN3CCOCC3)c3nc(C)c(Cc4ccc(Cl)cc4F)n3n2)n[nH]1 [gandotinib]
Procedure, shortened: as §1

[4] = compound: Cc1cc(SCc2sc(-c3ccc(C(F)(F)F)cc3)nc2C)ccc1OCC(=O)O
Procedure, shortened: as §1

doramapimod = compound: Cc1ccc(-n2nc(C(C)(C)C)cc2NC(=O)Nc2ccc(OCCN3CCOCC3)c3ccccc23)cc1 [doramapimod]
Procedure, shortened: as §1

ispinesib = compound: Cc1ccc(C(=O)N(CCCN)[C@@H](c2nc3cc(Cl)ccc3c(=O)n2Cc2ccccc2)C(C)C)cc1 [ispinesib]
Procedure, shortened: as §1

bafetinib = compound: Cc1ccc(NC(=O)c2ccc(CN3CC[C@H](N(C)C)C3)c(C(F)(F)F)c2)cc1Nc1nccc(-c2cncnc2)n1 [bafetinib]
Procedure, shortened: as §1

[5] = compound: Cc1cccc(CC(=O)N2CCc3c2ccc(-c2cn(C)c4ncnc(N)c24)c3F)n1
Procedure, shortened: as §1

nilotinib = compound: Cc1cn(-c2cc(NC(=O)c3ccc(C)c(Nc4nccc(-c5cccnc5)n4)c3)cc(C(F)(F)F)c2)cn1 [nilotinib]
Procedure, shortened: as §1

[6] = compound: Cc1nc(Nc2n[nH]c3c2CN(C(=O)N[C@H](CN(C)C)c2ccccc2)C3(C)C)c2sccc2n1
Procedure, shortened: as §1

dasatinib = compound: Cc1nc(Nc2ncc(C(=O)Nc3c(C)cccc3Cl)s2)cc(N2CCN(CCO)CC2)n1 [dasatinib]
Procedure, shortened: as §1

[7] = compound: Cc1ncc(-c2ccnc(Nc3ccc(S(C)(=O)=O)cc3)n2)n1C(C)C
Procedure, shortened: as §1

[8] = compound: Cn1cc(-c2ccc3c(c2)CCN3C(=O)Cc2cccc(C(F)(F)F)c2)c2c(N)ncnc21
Procedure, shortened: as §1

[9] = compound: Cn1cc(-c2ccc3nnc(C(F)(F)c4ccc5ncccc5c4)n3n2)cn1
Procedure, shortened: as §1

tipifarnib = compound: Cn1cncc1[C@@](N)(c1ccc(Cl)cc1)c1ccc2c(c1)c(-c1cccc(Cl)c1)cc(=O)n2C [tipifarnib]
Procedure, shortened: as §1

mubritinib = compound: FC(F)(F)c1ccc(/C=C/c2nc(COc3ccc(CCCCn4ccnn4)cc3)co2)cc1 [mubritinib]
Procedure, shortened: as §1

duvelisib = compound: C[C@H](Nc1ncnc2nc[nH]c12)c1cc2cccc(Cl)c2c(=O)n1-c1ccccc1 [duvelisib]
Procedure, shortened: as §1

tozasertib = compound: Cc1cc(Nc2cc(N3CCN(C)CC3)nc(Sc3ccc(NC(=O)C4CC4)cc3)n2)n[nH]1 [tozasertib]
Procedure, shortened: as §1

Measured: log2 fold change

TOM1 isoform 2 (UniProt O60784)
inactive: [1] 0.146 | crizotinib -0.002 | [2] 0.035 | [3] -0.096 | gandotinib 0.101 | [4] 0.023 | doramapimod -0.078 | ispinesib -0.043 | bafetinib -0.122 | [5] 0.026 | nilotinib -0.055 | [6] -0.104 | dasatinib -0.034 | [7] 0.116 | [8] -0.015 | [9] -0.012 | tipifarnib 0.022 | mubritinib -0.033

TRPT1 isoform 4 (UniProt Q86TN4)
inactive: [1] -0.176 | crizotinib -0.011 | doramapimod 0.013 | ispinesib -0.105 | [9] -0.011 | mubritinib 0.041

TRIM44 (UniProt Q96DX7)
inactive: [1] 0.013 | crizotinib 0.083 | [3] -0.059 | gandotinib 0.045 | [4] 0.024 | doramapimod -0.004 | ispinesib 0.03 | bafetinib -0.033 | [5] -0.01 | nilotinib -0.024 | [6] -0.023 | dasatinib -0.029 | [7] 0.026 | [8] 0.002 | [9] 0.051 | tipifarnib -0.041 | mubritinib 0.065

TRAF7 (UniProt Q6Q0C0)
inactive: [1] 0.028 | crizotinib 0.241 | [2] -0.082 | [3] -0.025 | doramapimod -0.063 | bafetinib 0.006 | [8] -0.146 | tipifarnib -0.085 | mubritinib -0.06

Quoted at random: 2 records from the list.
TRAF7 (UniProt Q6Q0C0)
inactive: [1] 0.028 | crizotinib 0.241 | [2] -0.082 | [3] -0.025 | doramapimod -0.063 | bafetinib 0.006 | [8] -0.146 | tipifarnib -0.085 | mubritinib -0.06

TOM1 isoform 2 (UniProt O60784)
inactive: [1] 0.146 | crizotinib -0.002 | [2] 0.035 | [3] -0.096 | gandotinib 0.101 | [4] 0.023 | doramapimod -0.078 | ispinesib -0.043 | bafetinib -0.122 | [5] 0.026 | nilotinib -0.055 | [6] -0.104 | dasatinib -0.034 | [7] 0.116 | [8] -0.015 | [9] -0.012 | tipifarnib 0.022 | mubritinib -0.033

Next entries follow.

TRIM28 (UniProt Q13263)
inactive: [1] -0.001 | crizotinib 0.046 | [2] 0.048 | [3] -0.068 | gandotinib -0.033 | [4] 0.039 | doramapimod -0.036 | ispinesib -0.007 | bafetinib 0.005 | [5] 0.011 | nilotinib -0.013 | [6] -0.035 | dasatinib -0.014 | [7] 0.013 | [8] -0.02 | [9] 0.004 | tipifarnib -0.035 | mubritinib 0.009

TRIM4 (UniProt Q9C037)
inactive: [1] 0.114 | crizotinib 0.045 | [2] 0.037 | [3] 0.061 | gandotinib -0.023 | doramapimod 0.092 | ispinesib -0.033 | bafetinib 0.039 | [5] -0.015 | nilotinib 0.111 | [6] 0.101 | [7] 0.058 | [8] 0.042 | [9] -0.138 | tipifarnib -0.014 | mubritinib 0.033

TOR1AIP2 (UniProt Q9H496)
inactive: [2] 0.013 | ispinesib 0.084 | bafetinib -0.011 | nilotinib 0.045 | [6] 0.172 | [7] 0.012 | [9] 0.256 | mubritinib -0.076

TNKS (UniProt O95271)
inactive: crizotinib -0.081 | duvelisib -0.244 | [4] 0.135 | doramapimod 0.046 | dasatinib 0.066 | tipifarnib 0.105

TRAM2 (UniProt Q15035)
inactive: [1] 0.012 | [3] -0.019 | tozasertib -0.013 | bafetinib -0.23 | [8] 0.014 | tipifarnib -0.403

TRIT1 (UniProt Q9H3H1)
inactive: crizotinib -0.186 | [3] 0.178 | doramapimod 0.08 | [8] -0.058

TSC1 (UniProt Q92574)
inactive: crizotinib 0.035 | [3] 0.124 | duvelisib 0.16 | tozasertib -0.109 | [4] 0.117 | doramapimod 0 | ispinesib -0.254 | dasatinib -0.324 | [8] -0.062 | [9] -0.04 | tipifarnib -0.129
